Experimental data reported in PubChem BioAssay AID624291 (National Center for Advancing Translational Sciences (NCATS), 2012).
Hit rate of the full screen: of about 350,000 compounds, about 220 (0.063%) were called active. This list was built around the results that the source calls inconclusive (neither active nor inactive); the mix of calls is not that of the screen. Calls follow the shape of the dose curve; as a rule, active = well fitted activation curve with a large enough effect; inconclusive = small, poorly fitted or top-dose-only effect; inactive = no such curve, though single readings can be large or run the other way. Potencies of inconclusive entries are doubtful fits and often do not repeat.

Assay: qHTS for Activators of Integrin-Mediated Alleviation for Muscular Dystrophy; also: nearly all actives have a fitted effect of over 60% in size;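 as to activation: 100% = response of the positive control SU9516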
Conditions: alpha7betagal myoblasts, beta-gal FDG fluorescence, 48 h; activation: at 38.3 µM (top of the series)
How it was run: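 Alpha7betagal+/- myoblasts (passage 13) were plated 16-24 hr, then exposed to compounds (1:260 dilution of DMSO stock) for 48 hours at 37C. After MPER lysis, β-galactosidase reporter activity was read as FDG fluorescence (ex 480/em 540) after 30 minutes.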
Potency is read from the fitted curve at half-maximal effect.

Potency, inconclusive:
CCOC(=O)C1=C(C)NC(C)=C(C(=O)OCC)C1c1cccc(C)n1 8.91 µM [activator, partial curve, poor fit], CN(CCO)c1ccc(-c2n[nH]c(=O)c3ccccc23)cc1[N+](=O)[O-] 2.82 µM [activator, single point], CCOC(=O)N1CCN(C(=O)CN(C2CCCCC2)S(=O)(=O)c2ccc(Cl)cc2)CC1 5.01 µM [activator, single point], CNC(=S)NCCCc1ccccc1 5.01 µM [activator, single point], COc1cc(OC)c(C(=O)NNC(=O)c2ccccc2-n2cccc2)cc1OC 7.94 µM [activator, partial curve, poor fit], CCc1ccc(N(CC(=O)NC(C)C)C(=O)CCC(=O)Nc2ccccn2)cc1 2.82 µM [activator, partial curve, poor fit], CCOC(=O)c1nnn(-c2ccc(OC)cc2)c1N 11.2 µM [activator, single point], OCCNC(=S)NCc1ccccc1 5.01 µM [activator, single point], O=[N+]([O-])c1nc2ccccc2[nH]1 5.01 µM [activator, single point], CCOC(=O)CC(=O)CSc1nc(C)cc(-c2cccnc2)c1C#N 11.2 µM [activator, single point], COc1cc2oc(=O)ccc2cc1[C@H](O)[C@@H](O)C(C)(C)O 5.01 µM [activator, single point], CC(=O)N1CC(C)Oc2ccc(S(=O)(=O)NC(CC(=O)O)c3cc(C)ccc3C)cc21 (stereo not drawn) 3.55 µM [activator, single point], O=C(NC(=O)c1c(F)cccc1F)O/N=C1\CCCc2occc21 28.2 µM [activator, single point], COc1ccc(C(=O)NCc2nnc(SCC(=O)Nc3cccc(OC)c3)o2)cc1 3.55 µM [activator, single point], CCCOc1ccc(C(F)(F)F)cc1NC(=O)c1cc(C)on1 0.501 µM [activator, full curve, poor fit], CCn1cc(/C=C/C(=O)c2ccc(O)cc2)c(C)n1 7.94 µM [activator, partial curve, poor fit], Cc1c(CN2CC[C@@H](N3CCN(c4ccccn4)CC3)[C@H](O)C2)[nH]c2ccc(F)cc12 0.501 µM [activator, full curve, poor fit], Cc1csc(NC(=O)CSc2ccc(-c3ccccc3)nn2)n1 28.2 µM [activator, single point], Nc1c(C(=O)N/N=C/c2ccccc2)cnn1-c1ccccc1 4.47 µM [activator, single point], COc1cccc(CNC(=O)Cn2nc(C)c3c(C)n(-c4ccc(C)cc4)nc3c2=O)c1OC 4.47 µM [activator, single point], COc1ccc(F)cc1S(=O)(=O)NC1CCCC1 11.2 µM [activator, single point], C/C(=N\NC(=O)c1ccc(CSc2nncn2C)cc1)c1cccs1 5.01 µM [activator, single point], CCOc1cccc(NC(=O)CSc2nc(C)c3c(c2C#N)CCCC3)c1 10 µM [activator, partial curve, poor fit], CC(C)CNC(=O)c1cc(-c2ccc3c(c2)OCO3)on1 5.01 µM [activator, single point], CCCN(C(=O)c1cccc(-n2cccc2)c1)c1c(N)n(Cc2ccccc2)c(=O)[nH]c1=O 2.24 µM [activator, partial curve, poor fit], NCCCN1CCOCC1 31.6 µM [activator, single point], O=C(O)c1ccc2c(=O)n3c(nc2c1)/C(=C/c1ccc(Cl)cc1Cl)CC3 3.16 µM [activator, single point], Cc1ccc(-c2nnc(Nc3ccc(CC(N)=O)cc3)c3ccccc23)cc1S(N)(=O)=O 0.316 µM [activator, partial curve, poor fit], N#Cc1ccc(CSc2ccccn2)c(Cl)c1 22.4 µM [activator, single point], CC(CCc1ccccc1)NC(=O)CNC(=O)c1cccs1 (stereo not drawn) 2.24 µM [activator, single point], COC(=O)CN1CC(=O)N(c2ccccc2)C1=S 14.1 µM [activator, single point], CC(C)n1c(=S)[nH]c2scc(-c3cccs3)c2c1=O 11.2 µM [activator, single point], Fc1cccc(NC(=S)NC2CCCCCCC2)c1 2.82 µM [activator, single point], COc1nccnc1NS(=O)(=O)c1ccc(N=Cc2c(C)[nH]n(-c3ccccc3)c2=O)cc1 28.2 µM [activator, single point], CCCCc1ccccc1NC(=S)NC1CCCC1 4.47 µM [activator, full curve, poor fit], CSc1ccc(/C=N/S(=O)(=O)c2ccccc2)cc1 5.01 µM [activator, single point], O=C(NCCCn1ccnc1)c1ccc2nccnc2c1 3.16 µM [activator, single point], Cc1[nH]c(=O)[nH]c(=O)c1S(=O)(=O)Nc1ccc(F)cc1Cl 0.891 µM [activator, full curve, poor fit], CN(C)c1ccc(C(=S)N2CCN(C(=S)Nc3ccccc3)CC2)cc1 1 µM [activator, partial curve, poor fit], COc1cc(CN2CCNC(=O)C2CC(=O)NCCCN2CCOCC2)cc(OC)c1 (stereo not drawn) 5.01 µM [activator, single point], O=S(=O)(c1cc(Cl)ccc1Cl)N1CCC2(CC1)OCCO2 5.01 µM [activator, single point], Cn1c(=O)c2c(ncn2CC(=O)OCC(=O)NCc2ccc(Cl)cc2)n(C)c1=O 0.891 µM [activator, full curve, poor fit], COc1ccc(OC(=O)COc2cccc(C)c2)cc1 0.447 µM [activator, full curve, poor fit], CN1CCN(C2=Nc3c(Cl)cc(Cl)c4cccc2c34)CC1 3.55 µM [activator, single point], COc1ccc(CC(=O)OCC(=O)N2CCCC(C)C2)cc1 (stereo not drawn) 28.2 µM [activator, partial curve, poor fit]

Potency, inactive:
O=C(c1ccc(Cl)c(S(=O)(=O)N2CCCCC2)c1)N1CCCCC1, Cc1sc2nc(-c3ccccc3F)oc(=O)c2c1C, COc1cc2c3nnc(-c4ccc(F)cc4)c-3cn(Cc3ccccc3)c2cc1OC, Cc1ccc(NC(=O)NC(=O)N(C(C)C)S(C)(=O)=O)nc1, Cc1ccc(C2(c3noc(CN(C)Cc4cccnc4)n3)CCCC2)cc1, CCCCC#Cc1cncc(C(=O)NN)c1, CC1=C(C(=O)N2CCOCC2)CC(CC(=O)NC2CCCCC2)C(=O)N1Cc1ccc(C(C)(C)C)cc1 (stereo not drawn), CCOC(=S)SCc1cn2ccc(C)cc2n1, OCCCn1c(CCNc2nc(-c3ccc(F)cc3)cs2)nc2cc(C(F)(F)F)ccc21, c1csc(-c2cnc3ccccc3n2)c1, CCN(CC)CCOc1nnc(-c2ccc(C)cc2)c2ccccc12, COc1ccc(C2Nc3cccc4cccc(c34)N2)cc1, O=C(CCNc1cccc(C(F)(F)F)c1)c1ccco1, COc1ccc(Cl)cc1NC(=O)CN(C)CC(=O)Nc1ccccc1N1CCOCC1, CCN(CC)S(=O)(=O)c1cccc(S(=O)(=O)N2CCCCC2)c1, C/C(=N\NC(N)=S)C1(C)CCCCC1, COC(=O)c1cc(CC(=O)c2ccc(O)cc2O)c(C)o1, O=C(O)c1ccc(CNCc2cccc(OCc3ccc(F)cc3)c2)cc1, CC(C)[C@H](NC(=O)c1ccccc1Cl)C(=O)Nc1ccc(S(=O)(=O)Nc2nccs2)cc1, NC(=S)NNc1cccc(Cl)c1, CCN(C(=O)Cc1c(C(=O)O)n(C)c2ccccc12)c1cccc(C)c1, CCN(CC)C(=O)[C@H]1CC(CC(=O)NCCc2ccccn2)C(=O)N2CCc3c([nH]c4ccccc34)[C@]12C (stereo partly drawn), O=C(CCCN1C(=O)[C@H]2CC=CC[C@H]2C1=O)NCc1nc(-c2ccccc2)no1, CC(=O)N1CCN(c2ccc(Oc3ccc([N+](=O)[O-])c(C(F)(F)F)c3)cc2)CC1, Cc1cnc(C(=O)Nc2ccc(C)c(S(=O)(=O)N(C)C)c2)cn1, O=S(=O)(c1cccc(-c2nnc(-c3ccc(Br)cc3)o2)c1)N1CCCCCC1, CCCCN(C(=O)C(C)Oc1ccc(Br)cc1)c1c(N)n(Cc2ccccc2)c(=O)[nH]c1=O (stereo not drawn)

activation, inconclusive:
Cc1ccc(OC(C)C(=O)OCC(=O)Nc2sccc2C(N)=O)cc1 (stereo not drawn) -13% [activator]
